The list does not hold the whole screen: it is rich in T/C values a quarter to a half above the control, in often repeated tests (any T/C) and in doses without a T/C. Further doses and runs are listed elsewhere. T/C gives the treated animals as a percentage of the vehicle group. Some doses have a count of surviving animals in place of a T/C: the source files T/C as zero there, which appears to mark a toxic dose or a test without result, not a measured value. Some doses without a T/C left all or most animals alive at the check, yet need not have been tolerated: survival well below the control is almost never listed, so the zero probably covers shortened survival too. Survivors were counted at the toxicity check, usually on the fifth day, unless a day is given; later deaths do not show. Schedule codes are those of the source, read here as Q, the interval in days (D) or hours (H), X, the number of doses. Some entries were tested several times; the values are given in rising order. For survival time, the PubChem record calls one and a half times the control and up active, and a quarter to a half above the control has no call in these data; cut-offs in other NCI protocols can differ. Some T/C values carry the count of animals alive at the toxicity check (mostly the fifth day); without a count, all were alive then.
System: P388 leukemia ip, CD2F1 mice, survival T/C
Test: NCI In Vivo Anticancer Drug Screen. Data for tumor model P388 Leukemia (intraperitoneal) in CD2F1 (CDF1) mice
Settings: T/C endpoint: median survival time, higher T/C = longer survival
[1] = dose: 240.0 mg/kg/injection, schedule: Q01DX005 (ip), vehicle: saline with Tween-80
[2] = dose: 100.0 mg/kg/injection, schedule: Q04DX003 (ip), vehicle: saline with Tween-80
[3] = dose: 200.0 mg/kg/injection, schedule: Q01DX005 (ip), vehicle: Klucel (hydroxypropylcellulose) (HPC)
[4] = dose: 100.0 mg/kg/injection, schedule: Q01DX009 (ip), vehicle: saline
[5] = dose: 200.0 mg/kg/injection, schedule: Q01DX009 (ip), vehicle: saline
[6] = dose: 50.0 mg/kg/injection, schedule: Q01DX005 (ip), vehicle: saline with Tween-80
[7] = dose: 100.0 mg/kg/injection, schedule: Q01DX005 (ip), vehicle: saline with Tween-80
[8] = dose: 25.0 mg/kg/injection, schedule: Q01DX009 (ip), vehicle: Klucel (hydroxypropylcellulose) (HPC)
[9] = dose: 50.0 mg/kg/injection, schedule: Q01DX009 (ip), vehicle: Klucel (hydroxypropylcellulose) (HPC)
[10] = dose: 200.0 mg/kg/injection, schedule: Q01DX005 (ip), vehicle: saline with Tween-80
[11] = dose: 200.0 mg/kg/injection, schedule: Q01DX009 (ip), vehicle: other
[12] = dose: 200.0 mg/kg/injection, schedule: Q04DX003 (ip), vehicle: saline with Tween-80
[13] = dose: 200.0 mg/kg/injection, schedule: Q01DX009 (ip), vehicle: saline with Tween-80

## COc1ccccc1Cc1c(OC)cc(OC)c(C(=O)CCc2ccccc2)c1O
dose: 14.0 mg/kg/injection, schedule: Q01DX009 (ip), vehicle: other
  T/C: 127 % of control

## NC(=O)C1C(=O)NC(=O)C1=O (stereo not given)
dose: 120.0 mg/kg/injection, schedule: Q01DX005 (ip), vehicle: saline with Tween-80
  survivor count: 1 of 6
[1]
  survivor count: 0 of 6

## Cc1cc2nc(NN=O)sc2cc1C
dose: 100.0 mg/kg/injection, schedule: Q01DX009 (ip), vehicle: water
  T/C: 126 % of control
dose: 200.0 mg/kg/injection, schedule: Q01DX009 (ip), vehicle: water
  survivor count: 0 of 6

## COc1cc(C=Nc2cccc(Cl)c2)ccc1N(CCCl)CCCl
dose: 33.0 mg/kg/injection, schedule: Q04DX003 (ip), vehicle: saline with Tween-80
  T/C: 135 % of control
dose: 50.0 mg/kg/injection, schedule: Q04DX003 (ip), vehicle: saline with Tween-80
  T/C: 145 % of control [5 of 6 alive]
dose: 75.0 mg/kg/injection, schedule: Q04DX003 (ip), vehicle: saline with Tween-80
  T/C: 125 % of control [4 of 6 alive]
[2]
  survivor count: 5 of 6

## CS(=O)(=O)c1ncnc2nc[nH]c12
dose: 50.0 mg/kg/injection, schedule: Q01DX005 (ip), vehicle: Klucel (hydroxypropylcellulose) (HPC)
  survivor count: 0 of 6
dose: 100.0 mg/kg/injection, schedule: Q01DX005 (ip), vehicle: Klucel (hydroxypropylcellulose) (HPC)
  survivor count: 0 of 6
[3]
  survivor count: 0 of 6

## O=C(O)c1c[nH]c2cc([N+](=O)[O-])ccc2c1=O
[4]
  survivor count: 2 of 6
[5]
  survivor count: 2 of 6

## CSc1ccc(/C=N/N=c2ccn(-c3ccc(Cl)cc3)cc2)cc1
dose: 200.0 mg/kg/injection, schedule: Q01DX001 (ip), vehicle: Klucel (hydroxypropylcellulose) (HPC)
  survivor count: 3 of 6
dose: 400.0 mg/kg/injection, schedule: Q01DX001 (ip), vehicle: Klucel (hydroxypropylcellulose) (HPC)
  survivor count: 1 of 6

## N#CC(c1ccccc1)c1ccc2ccccc2n1 (stereo not given)
[1]
  survivor count: 6 of 6

## N#Cc1nnn(-c2ccc(Cl)cc2)c1N
[3]
  survivor count: 5 of 5

## COC12CC(=O)C(C(C)=O)=C(O)C1(C)c1c(O)c(C)c(O)c(C(C)=O)c1O2 (stereo not given)
dose: 100.0 mg/kg/injection, schedule: Q01DX009 (ip), vehicle: gum acacia
  survivor count: 0 of 6 and 1 of 6
dose: 200.0 mg/kg/injection, schedule: Q01DX009 (ip), vehicle: gum acacia
  survivor count: 0 of 6

## Cc1cccc(/C=N/Nc2nc3ccccc3s2)n1
dose: 25.0 mg/kg/injection, schedule: Q01DX005 (ip), vehicle: saline with Tween-80
  survivor count: 6 of 6
[6]
  survivor count: 6 of 6
[7]
  survivor count: 6 of 6

## COc1cccc2c1C(=O)c1c(O)c3c(c(O)c1C2=O)C[C@@](O)(C(C)=O)C[C@@H]3OC1CC(N2CCOCC2C#N)C(O)C(C)O1 (stereo not given in full)
dose: 0.1 mg/kg/injection, schedule: Q04DX003 (ip), vehicle: water
  T/C: 131 % of control
dose: 0.78 mg/kg/injection, schedule: Q04DX003 (ip), vehicle: distilled water + Tween-80
  survivor count: 6 of 6 on day 9
dose: 1.56 mg/kg/injection, schedule: Q04DX003 (ip), vehicle: distilled water + Tween-80
  survivor count: 2 of 6 on day 9
dose: 3.12 mg/kg/injection, schedule: Q04DX003 (ip), vehicle: distilled water + Tween-80
  survivor count: 0 of 6 on day 9
dose: 6.25 mg/kg/injection, schedule: Q04DX003 (ip), vehicle: distilled water + Tween-80
  survivor count: 0 of 6 on day 9
dose: 12.5 mg/kg/injection, schedule: Q04DX003 (ip), vehicle: distilled water + Tween-80
  survivor count: 0 of 6 on day 9

## CCOc1ccc(-n2c(C)c(COC(=O)NC)c(COC(=O)NC)c2C)cc1
[8]
  T/C: 136 % of control
[9]
  survivor count: 5 of 6

## O=NNc1cncc(Sc2ccccc2)n1
dose: 100.0 mg/kg/injection, schedule: Q01DX008 (ip), vehicle: water
  survivor count: 6 of 6
dose: 200.0 mg/kg/injection, schedule: Q01DX008 (ip), vehicle: water
  survivor count: 2 of 6

## C/C(=N\NC(=S)SCc1ccccc1)c1ccccn1
dose: 12.5 mg/kg/injection, schedule: Q01DX009 (ip), vehicle: Klucel (hydroxypropylcellulose) (HPC)
  T/C: 126 [5 of 6 alive] and 128 % of control
[8]
  survivor count: 6 of 6
[9]
  survivor count: 6 of 6
dose: 100.0 mg/kg/injection, schedule: Q01DX009 (ip), vehicle: Klucel (hydroxypropylcellulose) (HPC)
  survivor count: 6 of 6
dose: 200.0 mg/kg/injection, schedule: Q01DX009 (ip), vehicle: Klucel (hydroxypropylcellulose) (HPC)
  survivor count: 0 of 6

## CC(C)(C)SCC(NC(=O)OCC1c2ccccc2-c2ccccc21)C(=O)O (stereo not given)
[3]
  survivor count: 0 of 6

## O=C1OC(C2=CC(=O)c3ccccc3C2=O)C(Cl)=C1Cl (stereo not given)
[10]
  survivor count: 0 of 6

## NNS(=O)(=O)c1cccc([N+](=O)[O-])c1
dose: 100.0 mg/kg/injection, schedule: Q01DX009 (ip), vehicle: other
  survivor count: 3 of 6
[11]
  survivor count: 0 of 6

## CNC(=O)OCc1c(COC(=O)NC)c(-c2ccc(Sc3ccccc3)cc2)n(C)c1C
dose: 12.5 mg/kg/injection, schedule: Q01DX009 (ip), vehicle: distilled water + Tween-80
  T/C: 142 % of control
dose: 25.0 mg/kg/injection, schedule: Q01DX009 (ip), vehicle: distilled water + Tween-80
  T/C: 146 % of control
dose: 200.0 mg/kg/injection, schedule: Q01DX009 (ip), vehicle: distilled water + Tween-80
  survivor count: 6 of 6

## O=S(=O)(Cc1cccs1)c1ncc(Br)cn1
[3]
  survivor count: 0 of 6

## C1CO[Te]2(O1)OCCO2
[2]
  survivor count: 6 of 6
[12]
  survivor count: 6 of 6
dose: 400.0 mg/kg/injection, schedule: Q04DX003 (ip), vehicle: saline with Tween-80
  survivor count: 1 of 6

## CN(C)c1ccc2nc3ccc(N)cc3[n+](-c3ccccc3)c2c1
[6]
  survivor count: 0 of 5
[7]
  survivor count: 0 of 5
[10]
  survivor count: 0 of 5

## COc1cc(Br)cc(C(=O)O)c1OC
[11]
  T/C: 126 % of control
dose: 400.0 mg/kg/injection, schedule: Q01DX009 (ip), vehicle: other
  survivor count: 3 of 6

## C[N+]1(C)CCOCC1
dose: 3.12 mg/kg/injection, schedule: Q01DX009 (ip), vehicle: saline
  survivor count: 6 of 6
dose: 50.0 mg/kg/injection, schedule: Q01DX009 (ip), vehicle: saline
  survivor count: 0 of 6
[4]
  survivor count: 0 of 6
[5]
  survivor count: 0 of 6

## COc1cc2c(cc1OC)C1C(=O)c3ccc4c(c3OC1CO2)CC(C(C)(O)CO)O4 (stereo not given)
dose: 40.0 mg/kg/injection, schedule: Q01DX005 (ip), vehicle: DMSO
  survivor count: 0 of 6

## CC/C(=C\c1ccccc1)[N+](=O)[O-]
dose: 50.0 mg/kg/injection, schedule: Q01DX009 (ip), vehicle: saline with Tween-80
  survivor count: 6 of 6

## Cc1[nH]c(=O)nc(CCc2ccccc2)c1-c1ccccc1
[1]
  survivor count: 5 of 6

## Nc1ccc2nc(-c3ccccc3)c(=O)oc2c1
[1]
  survivor count: 3 of 6

## NCCc1ccc([N+](=O)[O-])cc1
[5]
  survivor count: 0 of 6
dose: 400.0 mg/kg/injection, schedule: Q01DX009 (ip), vehicle: saline
  survivor count: 0 of 6

## COc1ccc2c(c1)CCC1C2=CCC2C(=O)OC(=O)C21C (stereo not given)
[10]
  survivor count: 4 of 6

## CCCNCC(O)COc1ccc2c3c(c(=O)oc2c1)CCC3 (stereo not given)
dose: 240.0 mg/kg/injection, schedule: Q01DX005 (ip), vehicle: Klucel (hydroxypropylcellulose) (HPC)
  survivor count: 3 of 6

## CC(C)(C)N=C(c1ccccc1)N1CCCCC1
[13]
  survivor count: 0 of 6

## S=C(NC1CCCCC1)N1CCC(CCCC2CCN(C(=S)NC3CCCCC3)CC2)CC1
[2]
  survivor count: 6 of 6
[13]
  survivor count: 6 of 6
[12]
  survivor count: 6 of 6

From PubChem BioAssay AID330 (DTP/NCI, 2004)
